PubChem BioAssay AID2551 (National Center for Advancing Translational Sciences (NCATS), 2010)
The whole screen tested about 310,000 compounds, of which about 17,000 (5.5%) were called active. Inconclusive results, whose numbers are uncertain, are shown with a selection of clear calls. Calls follow the shape of the dose curve; as a rule, active = well fitted inhibition curve with a large enough effect; inconclusive = small, poorly fitted or top-dose-only effect, or effect the other way; inactive = no such curve, though single readings can be large or run the other way. Potencies of inconclusive entries are doubtful fits and often do not repeat. Some structures have more than one record in an assay (separate samples or runs), and their calls can disagree.

The chains behind the UniProt entries cited, without tags or fusion partners. Where a name states a change or a piece, a line headed by the entry shows the natural chain unless it says otherwise.
UniProt P51450: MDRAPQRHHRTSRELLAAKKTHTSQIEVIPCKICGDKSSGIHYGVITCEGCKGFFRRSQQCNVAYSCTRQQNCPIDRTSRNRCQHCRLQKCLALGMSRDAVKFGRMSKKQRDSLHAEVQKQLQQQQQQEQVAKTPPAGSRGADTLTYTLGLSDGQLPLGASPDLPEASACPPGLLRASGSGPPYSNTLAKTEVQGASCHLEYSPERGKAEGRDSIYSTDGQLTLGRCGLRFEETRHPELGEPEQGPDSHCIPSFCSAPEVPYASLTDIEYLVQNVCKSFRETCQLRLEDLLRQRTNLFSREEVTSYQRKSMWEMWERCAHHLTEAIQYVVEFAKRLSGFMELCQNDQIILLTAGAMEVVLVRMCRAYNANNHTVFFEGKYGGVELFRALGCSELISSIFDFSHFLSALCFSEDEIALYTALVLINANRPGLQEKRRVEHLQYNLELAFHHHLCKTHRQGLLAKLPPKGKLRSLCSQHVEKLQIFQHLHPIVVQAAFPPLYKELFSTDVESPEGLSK

Target: Nuclear receptor ROR-gamma (Mus musculus) (UniProt P51450)
Test: qHTS for inhibitors of ROR gamma transcriptional activity; also: nearly all actives have a fitted effect of over 60% in size
Details: Drosophila S2 Gal4-RORgamma UAS-luciferase reporter, 20 h; series mostly up to 53.6 µM
Method in brief: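 Stably transfected Drosophila Schneider cells are the test system, with ROR gamma fused to Gal4 and luciferase under UAS control; luminescence is read after 20 hr of 700 uM copper sulfate induction at ambient temperature.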
Potency is read from the fitted curve at half-maximal effect.

| SMILES | Potency |
| --- | --- |
| CC1=Nc2ccc3ccccc3c2C1(C)C | active: 7.94 µM |
| CCOC(=O)CSc1ncc(OC)c(Sc2ccc(OC)cc2)n1 | inactive |
| COc1ccccc1N1CCN(C(c2ccc(N(C)C)cc2)c2nnnn2CCc2ccccc2)CC1 (stereo not drawn) | inconclusive: 3.16 µM [activator, single point] |
| CCOC(=O)c1cnc2c(N=Nc3ccccc3)c(N)nn2c1N | inactive |
| Cc1ccc(CNC(=O)/C(C#N)=C\c2ccc(N(C)C)cc2)cc1 | inconclusive: 28.2 µM [activator, single point] |
| O=S(=O)(c1cccc(-c2nnc(-c3cccnc3)o2)c1)N1CCCCC1 | inconclusive: 35.5 µM [activator, single point] |
| CC(=O)c1cccc(Nc2c([N+](=O)[O-])c(=O)oc3ccccc23)c1 | inconclusive: 7.08 µM [inhibitor, full curve, poor fit] |
| CCCn1c(C(C)Nc2nc(-c3ccc(C)cc3)cs2)nc2cc(Cl)c(Cl)cc21 (stereo not drawn) | active: 11.2 µM |
| O=C(CNC(=S)N(Cc1ccccc1Cl)C1CCCC1)NCCCN1CCOCC1 | inconclusive: 35.5 µM [inhibitor, single point] |
| COc1ccc(CC(=O)n2[nH]c(=O)cc(C)c2=O)cc1OC | active: 11.2 µM |
| O=C1CC(SC(=Nc2ccccc2)Nc2ccccc2)C(=O)N1c1ccc(Cl)c(Cl)c1 (stereo not drawn) | inconclusive: 35.5 µM [activator, single point] |
| CN1CCN(C(=O)NC2CCCN2S(=O)(=O)c2ccc(Cl)cc2)CC1 (stereo not drawn) | inconclusive: 35.5 µM [inhibitor, single point] |
| CS(=O)(=O)Nc1ccc(C2=NN(C(=O)c3ccco3)C(c3ccccc3F)C2)cc1 (stereo not drawn) | inconclusive: 4.47 µM [activator, full curve] |
| COc1cc(/C=C2/C(=O)ON=C2C)cc(Cl)c1O | active: 12.6 µM |
| COCCCn1c(=S)[nH]c2ncccc2c1=O | active: 11.2 µM |
| S=C(NCCc1ccc(Cl)cc1)NC1CCCCC1 | active: 3.55 µM |
| CN(C)c1cc(O)c(C(=S)Nc2ccccc2)c(N(C)C)c1 | inconclusive: 17.8 µM [inhibitor, single point] |
| O=C(/C=C/c1ccc(Br)cc1)c1ccco1 | inconclusive: 35.5 µM [inhibitor, single point] |
| CCOc1cc(NC(=S)NCC2CCCO2)c(OCC)cc1NC(=O)c1ccc(F)cc1 (stereo not drawn) | inconclusive: 5.01 µM [inhibitor, partial curve] |
| CCOC(=O)c1cc(C#N)c(N2CCN(c3ccccn3)CC2)nc1-c1ccccc1 | inactive |
| Cc1cc(NS(=O)(=O)c2ccc(NC(=S)NC(=O)/C=C/c3ccccc3)cc2)no1 | inconclusive: 14.1 µM [activator, partial curve] |
| FC(F)(F)c1nnc(-c2ccccc2)nc1N1CCCC1 | inactive |
| CCOC(=O)c1oc2cc(O)c(CC)cc2c(=O)c1-c1ccc2c(c1)OCCO2 | inconclusive: 7.08 µM [activator, partial curve, poor fit] |
| O=C(c1cc(-c2ccccc2)n[nH]1)N1CCc2c([nH]c3ccccc23)C1c1ccccn1 (stereo not drawn) | inconclusive: 11.2 µM [activator, partial curve, poor fit] |
| O=C(Nc1cc(C(F)(F)F)ccc1Cl)C(NCc1ccccc1)c1ccccc1 (stereo not drawn) | inconclusive: 31.6 µM [activator, single point] |

Compounds from the list above that contain an NH in an aromatic ring, in the order listed:

| SMILES | Potency |
| --- | --- |
| COc1ccc(CC(=O)n2[nH]c(=O)cc(C)c2=O)cc1OC | active: 11.2 µM |
| COCCCn1c(=S)[nH]c2ncccc2c1=O | active: 11.2 µM |
| O=C(c1cc(-c2ccccc2)n[nH]1)N1CCc2c([nH]c3ccccc23)C1c1ccccn1 (stereo not drawn) | inconclusive: 11.2 µM [activator, partial curve, poor fit] |

(next part)

| SMILES | Potency |
| --- | --- |
| Clc1cccc(/C=N/Nc2nc(Cl)nc3ccccc23)c1 | active: 2 µM |
| Cc1nc(N2CCN(c3ccccn3)CC2)c2c(C)c(C(=O)Nc3ccc(F)cc3Cl)sc2n1 | inconclusive: 12.6 µM [activator, partial curve] |
| CCOC(=O)c1sc(NC(=O)CSC(=S)N2CCN(C)CC2)nc1C | inactive |
| N#Cc1ccccc1-c1ccc2ncnc(NC3CC3)c2c1 | inconclusive: 15.8 µM [activator, single point] |
| CCCc1nc(C)c2c(=O)[nH]c(-c3cc(S(=O)(=O)N4CCN(CC)CC4)ccc3OCC)nn12 | inactive |
| CCOc1ccc(N(CCCCO)C(=S)NC(=O)c2ccc(C)c(Br)c2)cc1 | active: 2.51 µM |
| COc1ccc(C(=O)Nn2cnnc2)cc1OC | inactive |
| Cc1cc(=O)[nH]c(SCC(=O)/C=C2\N(C)c3ccccc3C2(C)C)n1 | inconclusive: 35.5 µM [inhibitor, single point] |
| CCOc1ccc(-c2nc(-c3cccnc3)no2)cc1 | inconclusive: 25.1 µM [inhibitor, single point] |
| O=C(NC1CCCCCCC1)c1cnccn1 | inconclusive: 35.5 µM [activator, single point] |
| Cc1ccccc1NC(NC(=O)OCCn1c([N+](=O)[O-])cnc1C)C(Cl)(Cl)Cl (stereo not drawn) | inconclusive: 35.5 µM [activator, single point] |
| COc1ccc(N/C(N)=N/c2nc(C)cc(C)n2)c(OC)c1 | inactive |
| Cc1cc2nc(C3CCCN(C(=S)Nc4ccccc4)C3)[nH]c2cc1C (stereo not drawn) | active: 12.6 µM |
| COc1ccc(/C(C)=N/NC(=O)c2ccc(CSc3cccc4cccnc34)cc2)cc1OC | active: 15.8 µM |
| COCCN1C(=S)N[C@@H](c2cccc(F)c2)C(C(=O)OC)=C1C | active: 3.55 µM |
| CCN(CC)S(=O)(=O)c1ccc(-c2nnc(SCC(=O)Nc3nc(C)cs3)o2)cc1 | inconclusive: 5.01 µM [inhibitor, partial curve] |
| CCOc1cc(C)nc(NCCc2ccc(OC)c(OC)c2)n1 | inactive |
| Cc1ccc(Cn2ccsc2=NC(=O)COC(=O)c2ccc(O)cc2O)cc1 | inconclusive: 11.2 µM [activator, partial curve] |
| O=C(Nc1ccc(Cl)cc1)Nc1nnc(/C=C/c2ccccc2)s1 | inconclusive: 35.5 µM [inhibitor, single point] |
| C=CCC(C(=O)NC(C)c1ccccc1)C(=O)NC(C)c1ccccc1 (stereo not drawn) | inactive |
| COc1ccc(/C=N\NC(=O)c2ccccc2F)cc1COc1ccc(F)cc1F | active: 15.8 µM |
| Cn1nc(-c2ccc(Cl)cc2)c2cc(C(=O)NC3CC3)sc21 | inconclusive: 1.78 µM [inhibitor, partial curve, poor fit] |
| CCOC(=O)C1CCCN(C(=O)/C=C/c2ccc(Cl)cc2)C1 (stereo not drawn) | inconclusive: 3.16 µM [activator, full curve, poor fit] |
| O=C(Nc1ccc(CN2CCOCC2)cc1)c1cc2ccccc2o1 | active: 11.2 µM |
| Cc1cccc(OCCCCCn2ccnc2)c1C | inconclusive: 8.91 µM [inhibitor, partial curve, poor fit] |

| SMILES | Potency |
| --- | --- |
| O=C(/C=C/c1ccccc1)NC(NC(=S)Nc1ccc(Cl)cc1)C(Cl)(Cl)Cl (stereo not drawn) | inconclusive: 35.5 µM [inhibitor, single point] |
| COc1ccc2cc(CCNC(=O)c3ccc(S(=O)(=O)N4CCOCC4)cc3)c(=O)[nH]c2c1 | inconclusive: 0.141 µM [activator, full curve, poor fit] |
| CCOC(=O)/C(=N\Nc1ccc(OC)cc1)c1csc(Nc2ccccc2)n1 | inconclusive: 22.4 µM [inhibitor, single point] |
| Nc1ccccc1SC(C[N+](=O)[O-])c1ccccc1 (stereo not drawn) | inconclusive: 35.5 µM [inhibitor, single point] |
| CCCCNC(=O)CSc1nnc(Cc2ccc(Cl)c(Cl)c2)c(=O)[nH]1 | inactive |
| Cn1c(/C=C/c2ccccc2)nc2ccccc21 | active: 10 µM |
| CCOC(=O)/C(=N\Nc1ccccc1Cl)N1CCN(Cc2ccccc2)CC1 | inconclusive: 31.6 µM [activator, single point] |
| COc1ccc(-c2ccc(CNCc3ccccn3)o2)cc1Cl | inconclusive: 14.1 µM [inhibitor, single point] |
| c1ccc2[nH]c(CSc3ncnc4c3oc3ccccc34)nc2c1 | inconclusive: 35.5 µM [inhibitor, single point] |
| Cc1cccc(-n2cnc(C(=O)NNC(=S)Nc3ccc(Cl)cc3)c2)n1 | inconclusive: 15.8 µM [inhibitor, single point] |
| O=C(NN1CCOCC1)c1cccc2ccccc12 | inactive |
| CN(C)S(=O)(=O)NCCNc1ccc(C(F)(F)F)cc1[N+](=O)[O-] | inconclusive: 11.2 µM [activator, partial curve, poor fit] |
| COc1ccccc1OCC(=O)N1CCCC(Nc2ccc(F)c(F)c2)C1 (stereo not drawn) | inactive |
| O=C1Nc2c(Br)cc(Br)cc2C1(O)N1CCOCC1 (stereo not drawn) | inconclusive: 20 µM [inhibitor, single point] |
| Cc1nc2cc(-c3ccccc3)nn2c(C)c1CCC(=O)N1CCN(c2ccccn2)CC1 | inconclusive: 35.5 µM [inhibitor, single point] |
| CCN(CC)Cc1nc2c(c(=O)[nH]1)C1(CCCC1)Cc1ccccc1-2 | active: 2.82 µM |
| Cc1cccc(CC2SC(N)=NC2=O)c1 (stereo not drawn) | inactive |
| COc1ccc(Cl)cc1NC(=O)NNC(=O)c1ccccn1 | active: 4.47 µM |
| N#Cc1c(NC(=O)c2ccccc2)sc2c1CCCCC2 | inconclusive: 0.501 µM [activator, full curve] |
| CCOCc1nnc(NC(=O)CSCc2ccccc2)s1 | inconclusive: 15.8 µM [inhibitor, single point] |
| Cn1c(-c2ccc3ccccc3n2)[n+](C)c2ccccc21 | inconclusive: 25.1 µM [activator, single point] |
| COC(=O)c1ccc(COc2cccc3c2OC(C)(C)C3)cc1 | inconclusive: 12.6 µM [activator, single point] |
| CC(C)c1nc2sc3c(c2c(=O)o1)CCCC3 | inconclusive: 35.5 µM [activator, single point] |
